Source: US20160159919A1
Substitutions are numbered along the chain they refer to. Results are given in words; binding and its absence hold for the method and conditions named. Some entries that bind do so weakly or less than the wild type.

Amino acid sequences for entries named in this document (tags omitted). A change or cut given only in a name is not applied to a line headed by its entry.
UniProt O14944: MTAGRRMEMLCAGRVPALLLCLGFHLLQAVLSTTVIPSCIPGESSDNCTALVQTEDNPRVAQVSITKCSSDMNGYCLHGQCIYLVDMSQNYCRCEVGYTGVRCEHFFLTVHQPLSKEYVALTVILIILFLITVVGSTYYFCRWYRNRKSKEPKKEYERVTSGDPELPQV

B1: H197-G1d/LB-k (antibody, human IgG1, kappa, V domains shown)
VH: QDQLVQSGAEVKKPGASVKVSCKASGFNIKDTYIQWVRQAPGQGLEWMGRIDPLRRQTKYHEKFEGRVTITADTSTNTAYMELSSLRSEDTAVYYCVRSGRSFDFWGQGTLVTVSS
VL: DIQMTQSPSSLSASVGDRVTITCKASQDIHKYIAWYQQKPGQAPRLLIQYTSTLQPGVPSRFSGSGSGTDYTFTISSLQPEDIATYYCLQYDNLRTFGGGTKVEIKR
B2: H197-G1d/L48-k (antibody, human IgG1, kappa, V domains shown)
VH: B1 VH
VL: B1 VL with L94R
B3: H204-G1d/LB-k (antibody, human IgG1, kappa, V domains shown)
VH: B1 VH with H61R, S88A, S102E
VL: B1 VL
B4: H205-G1d/LB-k (antibody, human IgG1, kappa, V domains shown)
VH: B1 VH with H61R, S102E, F105Y
VL: B1 VL
B5: H207-G1d/L48-k (antibody, human IgG1, kappa, V domains shown)
VH: B1 VH with H61R, T74E, S102E
VL: B1 VL with L94R
B6: H207-G1d/LB-k (antibody, human IgG1, kappa, V domains shown)
VH: B1 VH with H61R, T74E, S102E
VL: B1 VL
B7: H210-G1d/LB-k (antibody, human IgG1, kappa, V domains shown)
VH: B1 VH with H61K, S102E
VL: B1 VL
B8: H211-G1d/L48-k (antibody, human IgG1, kappa, V domains shown)
VH: B1 VH with S102E
VL: B1 VL with L94R
B9: H211-G1d/LB-k (antibody, human IgG1, kappa, V domains shown)
VH: B1 VH with S102E
VL: B1 VL
B10: H212-G1d/L48-k (antibody, human IgG1, kappa, V domains shown)
VH: B1 VH with R56K, H61R, S102E
VL: B1 VL with L94R
B11: H212-G1d/LB-k (antibody, human IgG1, kappa, V domains shown)
VH: B1 VH with R56K, H61R, S102E
VL: B1 VL
B12: H213-G1d/L48-k (antibody, human IgG1, kappa, V domains shown)
VH: B1 VH with R56H, H61R, S102E
VL: B1 VL with L94R

What follows are binders tested against Human EREG (Biacore analyte) (human) (UniProt O14944) (assay: SPR (Biacore), FIG. 3).

Binder	binding
B1	binds
B2	binds
B3	binds
B4	binds
B5	binds
B6	binds
B7	binds
B8	binds
B9	binds
B10	binds
B11	binds
B12	binds

These binders were tested against cynomolgus EREG (Biacore analyte) (cynomolgus monkey) (assay: SPR (Biacore), FIG. 4).

Binder	binding
B1	binds
B2	binds
B3	binds
B4	binds
B5	binds
B6	binds
B7	binds
B8	binds
B9	binds
B10	binds
B11	binds
B12	binds

What follows are binders tested against Human EREG (Biacore analyte) (human) (UniProt O14944) (assay: SPR (Biacore T100, Reference Example 24): antibody captured by Protein A, human EREG as analyte; bar = KD of the antibody / KD of chimeric EP27).

Binder	binding
B1	binds
B2	binds
B3	binds
B4	binds
B5	binds
B6	binds
B7	binds
B8	binds
B9	binds
B10	binds
B11	binds
B12	binds

The binders below were run against cynomolgus EREG (Biacore analyte) (cynomolgus monkey) (assay: SPR (Biacore T100, Reference Example 24): antibody captured by Protein A, cynomolgus and human EREG as analytes; bar = KD for monkey Epiregulin / KD for human Epiregulin).

Binder	binding
B1	binds
B2	binds
B3	binds
B4	binds
B5	binds
B6	binds
B7	binds
B8	binds
B9	binds
B10	binds
B11	binds
B12	binds
